Hit rate of the full screen: of about 53,000 sequences, about 3,700 (7%) were called active.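 Rule for the calls: active = gene knockdowns whose robust z-score for IL-1 alpha signal is at least 2 or at most -2, so actives lie on both sides; inactive = the rest.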 The list shows a part of the results.

The record followed here is PubChem BioAssay AID1508600 (Functional Genomics Laboratory (NCATS/FGL), 2020).

The experiment can be described thus: Components of the Cytosolic LPS Sensing Pathway: Gene Identification via Genome-wide siRNA Screen.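 Note: robust z of the log signal after scaling to non-targeting control siRNA wells of the plate.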 Conditions: RAW264.7 macrophages, IL-1a HTRF, actives lie on both sides, screened at 100 nM (by protocol), cells primed 5 h with Pam3CSK4 first. An outline of the steps: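 IL-1a HTRF of supernatants after 24 hour LipidA transfection of Pam3CSK4-primed (5 hours) RAW264.7 cells, 48h post-siRNA transfection (100 nM). Scores: percent of plate negative-control median, then log-based robust z-score.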
Background: TR-FRET usually uses a lanthanide donor and a delayed reading to cut background.
Take GGAAAACGAAAGAAACGAUTT against Rab15: the z-score is inactive: 0.307.
The value for GGAAAAGAUUGUCUUGUCCTT against Ralyl was inactive: -0.101; that for GGAGCAUUGAUAUAUGUCATT against Rragc was inactive: -0.684; that for CGUGGGUAGGCUUAGAGAUTT against Hgh1 was inactive: -0.696.
Regarding GGGAUAGAGGCAGUUUUGATT against Rras2, the z-score was inactive: -0.593.
Next, CGACGCAUUGAGGCAAUCUTT against Camsap3: inactive: -0.483; GGGAAGGAUUAUGUCAAAUTT against Kit: inactive: 0.328.
The value for GGUCAGAAUAUCCUCUUUUTT against Serpina9 was inactive: -0.507.
The value for GGCUAAACUCACAACACUCTT against Nlrc5 was inactive: 0.595; that for GGCUGAACAGAAUUAAGAATT against Surf6 was inactive: 0.042.
For GCAAGAUGCACCUAGUGACTT against Cish, the z-score was inactive: -1.55.
Next, GCUCGUCUCAGACUUAUUUTT against Il15: inactive: 1.96; CCGUGUCAUUUGGAGAGCUTT against Ndufaf5: inactive: -0.248; GCCAUACAGGUAGCUUCUGTT against Tradd: inactive: -0.396.
The value for GGUUUACCCAUCUUGGCCATT against Vwf was inactive: -0.501.
The value for GGCUGGUGUGACAUUGCCUTT against Pglyrp3 was inactive: 0.197; that for CCAUUGUUUGUAAUCUAGATT against Elmod3 was inactive: -0.149.
Regarding GCAACAAAGGCUUUCCCUATT against Trarg1, the z-score is inactive: -0.794.
As to GGUGGUGAAGCUAAAGCAGTT against Prkaca, the z-score is inactive: -1.58.
Next, GGCCAAGUGCACCAUCCUATT against Gng13: inactive: -0.852; GGAAGGUGUCUGUAAUAUATT against Slamf9: inactive: -0.0451.
Turning to GGAAACUUUUGGGAGAAAUTT against Itpr2, the z-score is inactive: 0.166.
As to CGUGUGAAGAAAAUUGAUGTT against Mmp27, the z-score is inactive: 0.568.
Next, GGAAACCAUCAAAGUAUGGTT against Ndufa6: inactive: 1.23.
In the case of GGCGUGACUUCCACAAGAGTT against Fabp4, the z-score is inactive: -0.14.
The value for CCACUUGUUGAUCAAGAGATT against Adamts15 was inactive: 0.79.
Next, GCCAGCCAUUGUACCAUGATT against Trappc12: inactive: 1.4.
As to GCACUAAGAAAUGGAUCUATT against Igbp1, the z-score was inactive: 0.565.
Next, GGAAAGAAGCAGCGGACUUTT against Nme7: active: 2.29; GGAAAGCUACAGAACCAUUTT against Tm6sf1: inactive: -0.652.
For the sequence GGGUGGCUUUCUAAUGUUGTT against Olfr362, the z-score is inactive: 0.393.
The value for GGAAAUACAGCUCGGAGCATT against Eaf2 was inactive: -0.124; that for CCCAAUGGCACUCUAUAUCTT against Hepacam was inactive: -1.32; that for GGACCAAAUCCUCUGAUUCTT against Bud13 was active: 2.74.
Next, GUGGAAUUCAUGGAUGACATT against Rps28: inactive: -0.765; GCAGAGCUAGCUGAAUUGCTT against Urb2: inactive: -0.156; GGUUAACACUAAAUGAAGATT against Cip2a: inactive: 0.153.
Turning to GGAUUCGCCUUUUCUACCGTT against Hoxb2, the z-score is inactive: 0.929.
Next, GCCCUCAAUAAAUGCCAUCTT against Pcsk1n: inactive: 1.23; GCGAUCUACGCUUUCAAAGTT against Dennd2a: inactive: 1.13; GGGAAUCUGAUGAAGAUGGTT against Grin3b: inactive: -1.56.
The value for CCUACUGUGCAUAGGUCUCTT against Tspan4 was inactive: 1.52; that for CCGAAUCGUCCUAAACCAATT against Cyp11a1 was inactive: 0.284; that for GGUCAUUCUAGGCUACAAUTT against Crx was inactive: -0.083.
Regarding GGUCAACAGAAUGAAAAAUTT against Runx1t1, the z-score is inactive: -0.211.
Regarding CGAUUGCUCUUAACCCUUGTT against Zfp597, the z-score is inactive: -0.233.
The value for CCAGGGAAUUAAAUUUACATT against Carmil1 was inactive: -0.935; that for GGAAUCAUUCACAGCAUGUTT against Arhgap15 was inactive: -0.0469; that for GGAUCUUACAGUCAGAGAGTT against Cdh4 was inactive: 0.164.
Turning to GGGUAUGUAUUACCUCGAGTT against Erbb3, the z-score is inactive: -1.66.
The value for GCCGUUGAAAAGGUUGGAUTT against Anp32b was inactive: -0.733; that for CCUGGAAUCACACAUACCUTT against Abr was inactive: -0.921; that for CCUUCUAUGCCUCCUACAATT against Wdr93 was inactive: 0.612.
The value for GGAAAAAUGACCACAUACUTT against Gucy1b2 was inactive: 0.00512; that for GCUACACCGAGGACAGUUUTT against Nid2 was inactive: 1.72.
As for CCUGUGAUGUGAUCAUUAATT against Pigr, the z-score is inactive: 1.37.
The value for CGACAUGUCAAAACUCACGTT against Zfp791 was inactive: 1.22; that for GGAUUCCAAUUUUAUUCCATT against Brca1 was inactive: 1.57; that for GGCACAGAAAGAGAAAUACTT against Ivd was inactive: 0.00782.
The value for CCUAGAUAGGCUUGUAGCCTT against Mylpf was inactive: 1.61; that for GGUGAAGAGUAAGAUCUUGTT against Gga1 was inactive: -0.0508; that for “GGUGGAAAUUUUCAGAGAATT against 4933411G06Rik” was inactive: -0.556.
Consider CCACGUGAAGGAGAGAUGATT against Mob2, for which the z-score was inactive: 1.39.
Turning to GGACGGUCAUGUCUAUGAATT against Pglyrp1, the z-score was inactive: -1.01.
In the case of GGUUUUAAUUGUUCAGACGTT against Lrrtm3, the z-score was inactive: 0.35.
As for GCACUUUGGCAUAUUUUCATT against Slc6a15, the z-score was inactive: -0.391.
Turning to GCAUCUGUAAAUCUUUAGCTT against Gpr85, the z-score was inactive: 0.866.
The value for CGAGAUGAAUUUCUAGUAGTT against Tubgcp3 was inactive: 1.47; that for AUGAGGAGACUCUUUGCUATT against Olfr1317 was inactive: -0.224; that for GGAUCUCCUUUUUUUUCAATT against Gabrr1 was inactive: 0.0887.
Regarding GCAUUUUUCGUUAGGAAAATT against Esco2, the z-score was active: 3.13.
On to GGUCUGUAUGAAGACAUUATT against Pdss1, for which the z-score is inactive: -1.16.
The value for CCCGUCACAUCUCAUUCCATT against Tpmt was inactive: -0.175; that for GCCAAGCAUUAAGUGAUAATT against Setmar was active: 2.7; that for GCCAUUACUUAACUCAUAATT against Zfp943 was inactive: 0.3.
GGGACCACAAGUUUAGAACTT against Cep57l1: the z-score is inactive: 0.434.
On to “GCUGAGACUAAACAUUGUATT against 2610008E11Rik”, for which the z-score is inactive: -0.717.
On to GUAGAAACUUCUCGUUCACTT against Tcl1b3, for which the z-score is inactive: 0.675.
The value for CGCACACACUGAACUUUAATT against Slco1a1 was inactive: -0.0612.
The value for GGUGAAGGUGAAACGAUAUTT against Mfap1a was inactive: 0.291; that for CCUCUCCUUCUUAGACAUGTT against Olfr724 was inactive: 0.654.
Consider GCCAUCGUGCGCAUGAUUUTT against Gstz1, for which the z-score is inactive: 0.883.
Take GCUAUCACUUUUCAUUAGATT against G0s2: the z-score is inactive: -0.902.
The value for CCUACCAGUUCCUAUUUAGTT against Alas2 was inactive: 0.452; that for GGAUGGUGUUGUGUUUAAATT against Chst2 was inactive: 0.962.
The value for CCUUCGAAUCUGAAACCUUTT against Slc27a3 was inactive: -0.973.
Consider GGAAAUGGUAAUUUUCAGUTT against Slc25a36, for which the z-score was inactive: -0.242.
Take GGAUUUCUACAGGGUGUAUTT against Trim8: the z-score is inactive: -1.19.
With GCCGUACUUUCUGAGAUUATT against Shq1, the z-score was inactive: 0.0585.
The value for GGAGCUGAAGAUCAAGGAGTT against Pkn3 was inactive: -0.849; that for GGGAAAGAAGCAAAACUUUTT against Fyttd1 was inactive: -0.199.
Turning to GGAGACUCUCACCUAUCAUTT against Doc2g, the z-score was inactive: -0.458.
With GGUACAUGCUCAAGUUAUATT against Bmp15, the z-score is inactive: -0.963.
The value for GGAUCUGACUGAAGAUCACTT against Asgr1 was inactive: 1.85; that for GGAAGAGGACAACCAGCUCTT against Cd82 was inactive: 0.59.
As for CCCUGAAUACUCUGAGUGGTT against Ucn, the z-score was inactive: 0.0905.
The value for GGCCAUUCAGAAGAUGCAGTT against Snapc2 was inactive: -0.852; that for GGAGGAGUAUGAUGAAUAUTT against Anp32a was inactive: 1.37.
On to GGAUGUUCAAGCGCAGAGATT against Gtf3a, for which the z-score is inactive: -0.202.
Next, GGCUGAAGACAAACAAAAGTT against Tm9sf2: inactive: -1.28; GCCAGUUUUGGUAUCCCGUTT against Lpcat2: inactive: -1.2.
The value for GGCCAGGAAAUAUGAAAUATT against Phtf1 was inactive: -0.352.
On to GCUUCGAUACCUUCAAACCTT against Stom, for which the z-score was active: -3.7.
The value for CCAUCUUCAACGAAACCUATT against Erich3 was inactive: -0.972; that for GGAAGAGCCUGAGAAAAGCTT against Perp was inactive: -1.34.
Regarding GGUUAAGUCUUUAAAGAAGTT against Cilk1, the z-score was inactive: 0.796.
Next, GGGCCAUUACAGAUGUGUUTT against Ly96: inactive: 0.211.
